In paper PMC7655153 one finds binding data, which are given here for one substance.

Test [1] has as its target T1, BAG5 (human (endogenous in U2OS, HeLa, SH-SY5Y cells and in human brain lysates)) (UniProt Q9UL15).
T1 sequence: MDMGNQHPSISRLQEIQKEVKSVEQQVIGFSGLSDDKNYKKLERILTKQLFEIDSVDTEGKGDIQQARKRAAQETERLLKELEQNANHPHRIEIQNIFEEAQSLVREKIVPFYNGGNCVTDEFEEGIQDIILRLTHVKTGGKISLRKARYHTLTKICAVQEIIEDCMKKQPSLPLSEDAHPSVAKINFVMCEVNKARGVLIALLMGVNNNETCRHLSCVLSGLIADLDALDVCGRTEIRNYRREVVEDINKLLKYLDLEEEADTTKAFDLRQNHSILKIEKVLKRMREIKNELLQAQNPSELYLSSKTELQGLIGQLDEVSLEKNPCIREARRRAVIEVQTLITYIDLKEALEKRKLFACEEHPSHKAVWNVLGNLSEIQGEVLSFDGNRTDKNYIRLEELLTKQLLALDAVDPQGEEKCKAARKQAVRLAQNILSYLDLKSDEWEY
Put plainly: co-IP; lysates (1000 μg, NP40 lysis buffer) of etoposide- or H2O2-treated U2OS, HeLa and SH-SY5Y cells; anti-BAG5 overnight at 4°C, protein A-Sepharose; blots for α-synuclein and HSP70.

Test [2] addresses T1, BAG5 (human (endogenous in U2OS, HeLa, SH-SY5Y cells and in human brain lysates)). Put plainly: co-IP; human brain lysates (200 μg, Novus Biological) of normal control and PD; anti-BAG5 overnight at 4°C, protein A-Sepharose; blots for phospho-α-synuclein (Ser129), α-synuclein and HSP70.

Results are given in words; binding and its absence hold for the method and conditions named. Binding seen in cells or lysates may run through a third protein. A result given as binding can be weak or reduced; the word gives no strength.

For HSP70, the binding entry in test [1] and in test [2] was “binds” throughout.
